Experimental data published in paper PMC2492875.
Results are given in words; binding and its absence hold for the method and conditions named. In cells and extracts the contact can be indirect. Some entries that bind do so weakly or less than the wild type.

Protein sequences, listed by entry. Tags and fused reporters are not part of them. Lines headed by an entry give the natural chain unless they say otherwise; changes in a name come on top. Chains listed by the source or under a name are the forms on record and can include a tag or linker.
Myc-CycT1-U7 (mutant of the C-terminal truncation CycT1(1–280) of human cyclin T1) (O60563, form named): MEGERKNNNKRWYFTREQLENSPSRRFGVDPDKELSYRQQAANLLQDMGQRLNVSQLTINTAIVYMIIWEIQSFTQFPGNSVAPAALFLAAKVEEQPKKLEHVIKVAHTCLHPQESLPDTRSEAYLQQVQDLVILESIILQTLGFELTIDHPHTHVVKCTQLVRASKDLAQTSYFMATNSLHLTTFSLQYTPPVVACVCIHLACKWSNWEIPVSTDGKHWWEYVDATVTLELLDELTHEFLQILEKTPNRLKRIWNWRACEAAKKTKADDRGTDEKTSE
UniProt P04608: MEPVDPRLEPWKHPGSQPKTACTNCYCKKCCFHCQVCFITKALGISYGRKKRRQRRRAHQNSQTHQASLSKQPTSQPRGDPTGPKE

Biological target: Myc-CycT1-U7 (mutant of the C-terminal truncation CycT1(1–280) of human cyclin T1) (human) (UniProt O60563)
Assay: co-IP; HeLa cells stably expressing Myc-CycT1-U7, transfected with HA-Tat; Epoxomicin 50 μM before lysis (legend: 30 min; text: 60 min); IP with anti-Myc, Western blot with anti-HA; normal rabbit IgG as negative control

“HA-tagged HIV-1 Tat (from UniProt P04608 1-86)” was tested, and the binding was “binds”.
